Drawing on PMC13423814, this text covers binding for three molecules.

Chains of the proteins cited; added tags and fusions are not shown.
UniProt P15682: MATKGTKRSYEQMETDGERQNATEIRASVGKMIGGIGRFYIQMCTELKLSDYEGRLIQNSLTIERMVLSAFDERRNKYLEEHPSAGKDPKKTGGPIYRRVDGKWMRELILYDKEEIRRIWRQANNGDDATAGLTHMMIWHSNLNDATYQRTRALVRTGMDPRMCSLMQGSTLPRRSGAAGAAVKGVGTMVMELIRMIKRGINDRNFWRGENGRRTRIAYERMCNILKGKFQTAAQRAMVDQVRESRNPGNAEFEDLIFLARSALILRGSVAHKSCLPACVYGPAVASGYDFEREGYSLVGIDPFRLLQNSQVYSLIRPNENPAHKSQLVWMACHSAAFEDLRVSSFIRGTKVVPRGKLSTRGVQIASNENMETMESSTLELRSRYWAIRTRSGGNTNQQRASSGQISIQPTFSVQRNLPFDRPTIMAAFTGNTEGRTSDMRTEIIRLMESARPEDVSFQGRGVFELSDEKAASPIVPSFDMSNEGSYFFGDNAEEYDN

What all share (experiment): affinity purification with mass spectrometry
In experiment [1] the target is T1, NONO (human (endogenous in A549)) (UniProt Q15233).
T1 sequence: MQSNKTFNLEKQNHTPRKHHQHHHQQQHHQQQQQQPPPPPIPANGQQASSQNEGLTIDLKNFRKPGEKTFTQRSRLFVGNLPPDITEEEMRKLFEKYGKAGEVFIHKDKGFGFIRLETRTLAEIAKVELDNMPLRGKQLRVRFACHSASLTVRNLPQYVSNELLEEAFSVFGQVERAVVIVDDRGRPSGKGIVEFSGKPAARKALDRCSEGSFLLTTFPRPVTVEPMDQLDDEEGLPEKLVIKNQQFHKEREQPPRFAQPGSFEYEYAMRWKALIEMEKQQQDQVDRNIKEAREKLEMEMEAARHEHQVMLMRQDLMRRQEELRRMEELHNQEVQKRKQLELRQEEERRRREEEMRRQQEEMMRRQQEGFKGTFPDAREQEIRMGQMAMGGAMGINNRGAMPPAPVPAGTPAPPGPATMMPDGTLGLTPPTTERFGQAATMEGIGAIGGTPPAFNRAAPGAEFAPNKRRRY

In experiment [2] the target is Influenza A virus nucleoprotein (NP), strain A/WSN/33 (H1N1) (influenza A virus A/WSN/33 (H1N1)) (UniProt P15682).
For experiment [3] the target is unchanged. This is another data set of the same source.

Read-outs that look alike come from different tables or passages of the source. These are yes or no findings as the source states them, for the method shown. Binding seen in cells or lysates may run through a third protein. Here binding means that the protein was enriched with, or labelled near, the bait; the list need not be complete.

For the molecule “Influenza A virus nucleoprotein (NP), strain A/WSN/33 (H1N1) (from UniProt P15682 1-498)”, the binding result in experiment [1] is “binds”. Turning to hnRNPK (from UniProt P61978 1-463), the binding entry in experiment [2] is reported as “binds”.

B1: MATR3 (protein, UniProt P43243 1-847)
chain: MSKSFQQSSLSRDSQGHGRDLSAAGIGLLAAATQSLSMPASLGRMNQGTARLASLMNLGMSSSLNQQGAHSALSSASTSSHNLQSIFNIGSRGPLPLSSQHRGDADQASNILASFGLSARDLDELSRYPEDKITPENLPQILLQLKRRRTEEGPTLSYGRDGRSATREPPYRVPRDDWEEKRHFRRDSFDDRGPSLNPVLDYDHGSRSQESGYYDRMDYEDDRLRDGERCRDDSFFGETSHNYHKFDSEYERMGRGPGPLQERSLFEKKRGAPPSSNIEDFHGLLPKGYPHLCSICDLPVHSNKEWSQHINGASHSRRCQLLLEIYPEWNPDNDTGHTMGDPFMLQQSTNPAPGILGPPPPSFHLGGPAVGPRGNLGAGNGNLQGPRHMQKGRVETSRVVHIMDFQRGKNLRYQLLQLVEPFGVISNHLILNKINEAFIEMATTEDAQAAVDYYTTTPALVFGKPVRVHLSQKYKRIKKPEGKPDQKFDQKQELGRVIHLSNLPHSGYSDSAVLKLAEPYGKIKNYILMRMKSQAFIEMETREDAMAMVDHCLKKALWFQGRCVKVDLSEKYKKLVLRIPNRGIDLLKKDKSRKRSYSPDGKESPSDKKSKTDGSQKTESSTEGKEQEEKSGEDGEKDTKDDQTEQEPNMLLESEDELLVDEEEAAALLESGSSVGDETDLANLGDVASDGKKEPSDKAVKKDGSASAAAKKKLKKVDKIEELDQENEAALENGIKNEENTEPGAESSENADDPNKDTSENADGQSDENKDDYTIPDEYRIGPYQPNVPVGIDYVIPKTGFYCKLCSLFYTNEEVAKNTHCSSLPHYQKLKKFLNKLAEERRQKKET
For the molecule B1, the binding entry in experiment [3] was “binds”.
